In patent US20220056484A1, “SELECTION BY MEANS OF ARTIFICIAL TRANSACTIVATORS” (Ospedale San Raffaele S.R.L., priority 2018, published 2022):
For at least one compound, name, drawing or mass did not settle the structure.

Assays:
Assay type in all cases: cell-based, human
[1] = system: TetO7-SK GFP selector in IL2RG locus, CD34+ cells; test: SMArT-D in CB-derived CD34+ cells, IL2RG locus, GFP selector; details: treatment upon electroporation, compared to untreated cells
[2] = system: truncated NGFR selector in CD40LG locus, CD34+ cells; test: SMArT-D in CD34+ cells, CD40LG locus, truncated NGFR selector
[3] = system: GFP selector in AAVS1 locus, CD34+ cells; test: SMArT-D in CD34+ cells, AAVS1 locus, GFP selector; details: 400 nM

SMILES: C[C@H]1c2cccc(O)c2C(=O)C2=C(O)[C@]3(O)C(=O)C(C(N)=O)=C(O)[C@@H](N(C)C)[C@@H]3[C@@H](O)[C@@H]21 [doxycycline]
- control of selector expression [1]: efficiently controlled selector expression
- transactivation in presence of modulator, CD40LG locus [2]: very limited transactivation
- transactivation in presence of modulator, AAVS1 locus [3]: particularly constrained transactivation in the cells that did not received RNP
